These results are taken from PMC9241815, “Role of the Two-Component System CiaRH in the Regulation of Efflux Pump SatAB and Its Correlation with Fluoroquinolone Susceptibility”.

The exact form of at least one protein or probe is not confirmed.

The target in the data set is CiaR, phosphorylated (UniProt A0A0H3MUU9). Put plainly: EMSA. Conditions: EMSA: Beyotime EMSA binding buffer, 20 min, room temperature, 4% native PAGE, proteins dialyzed in 25 mM Tris pH 7.4, 150 mM NaCl, 5% glycerol, 0.5 mM EDTA, 1 mM DTT, recombinant protein, residues 1-224, protein details: C-terminal 6xHis (from primer, pET-30a(+)), label: biotin 3' end.

With “AGGAATCAAGAAATTAAAGCTCAAATTTCAGGAGATAGTAGTTCTTCTAATCAATAAATATTGAGATTTCGATTTTTACTTATTCCATGATATAATGAACTCGTATCAATAAATAGTTAGATAAAGACTACCTTATCATTCATTTTTCAGATGGTCATAGTAGTACTTTATCTAACCATTTCTCTTAAAGACCGTGACCTGTCCCAGGTCTTTGGTTTGTTTATTAAACCGAAACGTAAGGAAGTGTATG (double strand) [ciaR promoter probe]”, where the note is “800 ng CiaR, probe letters rebuilt from the primers and the genome”, the binding result is “binds”.

As to “TTGACAATAGTTCTTAAGAGAACTATAATAGTTCTCATGGTAATTATTTTCGTAGAAAG (double strand) [satRAB promoter EMSA probe]”, the binding result (200-800 ng CiaR) is given as “binds”.
